Measurements taken from ChEMBL document CHEMBL1221228, “Norselic acids A-E, highly oxidized anti-infective steroids that deter mesograzer predation, from the Antarctic sponge Crella sp” (2009).

Test system: Candida albicans
Assay: Antimicrobial activity against Candida albicans 54 at 100 units after 18 hrs by agar diffusion method
Type: functional, organism-based

Sequence: NYSTATIN
- inhibition zone (IZ): 15 mm
